Among the data in the supplement of paper PMC10849652 are log2 fold change values, retold here.

By UniProt entry, the sequences of proteins in these tests, tags left out. Where a name states a change or a piece, a line headed by the entry shows the natural chain unless it says otherwise.
UniProt O43761: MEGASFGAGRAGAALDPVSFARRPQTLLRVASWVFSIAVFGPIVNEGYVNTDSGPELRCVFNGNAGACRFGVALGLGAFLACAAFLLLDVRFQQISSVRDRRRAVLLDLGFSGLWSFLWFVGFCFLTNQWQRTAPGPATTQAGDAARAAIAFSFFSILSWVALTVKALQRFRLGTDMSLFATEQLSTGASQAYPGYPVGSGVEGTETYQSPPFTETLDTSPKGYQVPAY
UniProt Q8TDR2: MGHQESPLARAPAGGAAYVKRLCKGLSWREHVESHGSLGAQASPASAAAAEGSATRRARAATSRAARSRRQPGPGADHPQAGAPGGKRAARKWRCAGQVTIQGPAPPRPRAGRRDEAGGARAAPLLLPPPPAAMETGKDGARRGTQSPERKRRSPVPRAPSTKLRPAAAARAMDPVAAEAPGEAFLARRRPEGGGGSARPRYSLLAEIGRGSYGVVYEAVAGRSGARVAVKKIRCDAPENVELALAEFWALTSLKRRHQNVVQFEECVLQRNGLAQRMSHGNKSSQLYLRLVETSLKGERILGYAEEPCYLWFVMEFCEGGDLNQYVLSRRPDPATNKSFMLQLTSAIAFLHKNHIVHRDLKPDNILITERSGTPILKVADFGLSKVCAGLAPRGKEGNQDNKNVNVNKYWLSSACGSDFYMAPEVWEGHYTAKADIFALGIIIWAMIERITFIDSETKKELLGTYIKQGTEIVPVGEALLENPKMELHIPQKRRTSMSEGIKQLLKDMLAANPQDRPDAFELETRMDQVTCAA
UniProt O43759: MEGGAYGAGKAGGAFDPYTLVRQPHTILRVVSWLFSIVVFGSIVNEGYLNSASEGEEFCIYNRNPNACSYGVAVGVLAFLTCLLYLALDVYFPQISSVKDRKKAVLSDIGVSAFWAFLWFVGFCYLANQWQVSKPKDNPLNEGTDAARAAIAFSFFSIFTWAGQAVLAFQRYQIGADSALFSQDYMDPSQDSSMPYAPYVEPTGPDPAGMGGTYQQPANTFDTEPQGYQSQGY
UniProt Q15542, whole entry, looked up: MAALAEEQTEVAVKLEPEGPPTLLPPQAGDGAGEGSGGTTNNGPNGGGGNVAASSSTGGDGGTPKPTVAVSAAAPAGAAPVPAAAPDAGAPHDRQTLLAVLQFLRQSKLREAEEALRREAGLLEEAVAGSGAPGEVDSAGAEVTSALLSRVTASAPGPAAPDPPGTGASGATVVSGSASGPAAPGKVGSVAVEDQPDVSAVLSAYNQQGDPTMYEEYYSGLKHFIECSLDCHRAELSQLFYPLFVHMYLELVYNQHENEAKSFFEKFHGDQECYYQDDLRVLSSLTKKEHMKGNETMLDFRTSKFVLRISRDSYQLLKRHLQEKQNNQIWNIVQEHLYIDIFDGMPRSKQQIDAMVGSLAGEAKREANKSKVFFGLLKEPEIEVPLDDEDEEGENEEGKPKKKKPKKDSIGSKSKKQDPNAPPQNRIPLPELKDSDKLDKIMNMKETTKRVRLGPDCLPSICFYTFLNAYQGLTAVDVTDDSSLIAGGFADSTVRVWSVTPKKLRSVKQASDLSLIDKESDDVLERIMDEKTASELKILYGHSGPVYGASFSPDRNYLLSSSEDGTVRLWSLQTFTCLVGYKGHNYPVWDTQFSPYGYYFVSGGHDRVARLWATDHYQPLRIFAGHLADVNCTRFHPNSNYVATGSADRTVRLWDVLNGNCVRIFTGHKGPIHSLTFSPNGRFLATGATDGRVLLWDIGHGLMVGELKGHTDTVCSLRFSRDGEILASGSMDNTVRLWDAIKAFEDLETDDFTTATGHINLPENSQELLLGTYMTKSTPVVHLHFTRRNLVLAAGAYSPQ
UniProt O94804: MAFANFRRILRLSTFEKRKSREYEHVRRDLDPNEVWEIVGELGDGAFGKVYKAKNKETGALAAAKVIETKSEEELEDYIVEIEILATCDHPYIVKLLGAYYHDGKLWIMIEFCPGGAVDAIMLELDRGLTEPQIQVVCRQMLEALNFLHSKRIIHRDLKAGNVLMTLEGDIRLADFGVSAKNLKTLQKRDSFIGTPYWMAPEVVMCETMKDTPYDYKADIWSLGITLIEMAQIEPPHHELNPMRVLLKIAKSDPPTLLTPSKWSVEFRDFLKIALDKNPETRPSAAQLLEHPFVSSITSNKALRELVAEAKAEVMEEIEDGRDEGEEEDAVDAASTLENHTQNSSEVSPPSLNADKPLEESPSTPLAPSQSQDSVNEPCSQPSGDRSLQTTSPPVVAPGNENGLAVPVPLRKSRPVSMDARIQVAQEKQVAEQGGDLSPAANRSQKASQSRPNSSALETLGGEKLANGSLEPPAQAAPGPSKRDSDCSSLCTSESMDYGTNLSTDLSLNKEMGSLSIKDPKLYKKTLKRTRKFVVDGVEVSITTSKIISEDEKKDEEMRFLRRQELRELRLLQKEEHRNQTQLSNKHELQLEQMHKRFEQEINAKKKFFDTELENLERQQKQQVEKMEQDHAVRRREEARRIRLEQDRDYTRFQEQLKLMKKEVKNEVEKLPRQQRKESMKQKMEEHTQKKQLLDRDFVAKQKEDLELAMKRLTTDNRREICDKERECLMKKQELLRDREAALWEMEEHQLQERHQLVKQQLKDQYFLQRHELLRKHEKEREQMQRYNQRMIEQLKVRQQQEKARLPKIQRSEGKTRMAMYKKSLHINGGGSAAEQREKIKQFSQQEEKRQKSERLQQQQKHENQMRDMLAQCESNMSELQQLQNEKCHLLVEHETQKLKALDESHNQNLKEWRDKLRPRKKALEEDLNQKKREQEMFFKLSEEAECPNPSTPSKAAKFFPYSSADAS
UniProt Q96L08: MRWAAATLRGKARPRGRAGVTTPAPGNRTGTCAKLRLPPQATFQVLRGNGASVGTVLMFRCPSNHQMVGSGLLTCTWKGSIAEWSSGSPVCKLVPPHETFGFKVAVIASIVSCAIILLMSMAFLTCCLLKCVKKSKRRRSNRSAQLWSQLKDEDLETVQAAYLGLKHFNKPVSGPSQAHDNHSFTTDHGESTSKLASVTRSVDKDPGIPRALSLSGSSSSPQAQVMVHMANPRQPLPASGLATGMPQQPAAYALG
UniProt O75486: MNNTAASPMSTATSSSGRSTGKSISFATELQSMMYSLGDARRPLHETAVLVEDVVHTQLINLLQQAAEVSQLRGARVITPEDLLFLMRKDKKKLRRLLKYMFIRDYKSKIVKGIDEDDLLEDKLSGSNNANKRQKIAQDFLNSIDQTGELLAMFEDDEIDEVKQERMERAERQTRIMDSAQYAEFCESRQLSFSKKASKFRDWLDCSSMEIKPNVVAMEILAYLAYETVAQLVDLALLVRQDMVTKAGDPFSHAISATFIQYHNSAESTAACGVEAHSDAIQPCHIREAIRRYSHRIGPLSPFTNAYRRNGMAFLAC
UniProt Q92537: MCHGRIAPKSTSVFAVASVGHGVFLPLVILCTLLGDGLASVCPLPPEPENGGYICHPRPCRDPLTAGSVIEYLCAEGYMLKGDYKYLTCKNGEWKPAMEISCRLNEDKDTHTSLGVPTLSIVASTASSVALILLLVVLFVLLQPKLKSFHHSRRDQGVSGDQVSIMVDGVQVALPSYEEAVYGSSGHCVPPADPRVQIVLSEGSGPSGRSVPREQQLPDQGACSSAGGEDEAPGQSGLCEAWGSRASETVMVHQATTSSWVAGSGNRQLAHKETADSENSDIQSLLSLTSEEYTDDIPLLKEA
UniProt P21675, whole entry, looked up: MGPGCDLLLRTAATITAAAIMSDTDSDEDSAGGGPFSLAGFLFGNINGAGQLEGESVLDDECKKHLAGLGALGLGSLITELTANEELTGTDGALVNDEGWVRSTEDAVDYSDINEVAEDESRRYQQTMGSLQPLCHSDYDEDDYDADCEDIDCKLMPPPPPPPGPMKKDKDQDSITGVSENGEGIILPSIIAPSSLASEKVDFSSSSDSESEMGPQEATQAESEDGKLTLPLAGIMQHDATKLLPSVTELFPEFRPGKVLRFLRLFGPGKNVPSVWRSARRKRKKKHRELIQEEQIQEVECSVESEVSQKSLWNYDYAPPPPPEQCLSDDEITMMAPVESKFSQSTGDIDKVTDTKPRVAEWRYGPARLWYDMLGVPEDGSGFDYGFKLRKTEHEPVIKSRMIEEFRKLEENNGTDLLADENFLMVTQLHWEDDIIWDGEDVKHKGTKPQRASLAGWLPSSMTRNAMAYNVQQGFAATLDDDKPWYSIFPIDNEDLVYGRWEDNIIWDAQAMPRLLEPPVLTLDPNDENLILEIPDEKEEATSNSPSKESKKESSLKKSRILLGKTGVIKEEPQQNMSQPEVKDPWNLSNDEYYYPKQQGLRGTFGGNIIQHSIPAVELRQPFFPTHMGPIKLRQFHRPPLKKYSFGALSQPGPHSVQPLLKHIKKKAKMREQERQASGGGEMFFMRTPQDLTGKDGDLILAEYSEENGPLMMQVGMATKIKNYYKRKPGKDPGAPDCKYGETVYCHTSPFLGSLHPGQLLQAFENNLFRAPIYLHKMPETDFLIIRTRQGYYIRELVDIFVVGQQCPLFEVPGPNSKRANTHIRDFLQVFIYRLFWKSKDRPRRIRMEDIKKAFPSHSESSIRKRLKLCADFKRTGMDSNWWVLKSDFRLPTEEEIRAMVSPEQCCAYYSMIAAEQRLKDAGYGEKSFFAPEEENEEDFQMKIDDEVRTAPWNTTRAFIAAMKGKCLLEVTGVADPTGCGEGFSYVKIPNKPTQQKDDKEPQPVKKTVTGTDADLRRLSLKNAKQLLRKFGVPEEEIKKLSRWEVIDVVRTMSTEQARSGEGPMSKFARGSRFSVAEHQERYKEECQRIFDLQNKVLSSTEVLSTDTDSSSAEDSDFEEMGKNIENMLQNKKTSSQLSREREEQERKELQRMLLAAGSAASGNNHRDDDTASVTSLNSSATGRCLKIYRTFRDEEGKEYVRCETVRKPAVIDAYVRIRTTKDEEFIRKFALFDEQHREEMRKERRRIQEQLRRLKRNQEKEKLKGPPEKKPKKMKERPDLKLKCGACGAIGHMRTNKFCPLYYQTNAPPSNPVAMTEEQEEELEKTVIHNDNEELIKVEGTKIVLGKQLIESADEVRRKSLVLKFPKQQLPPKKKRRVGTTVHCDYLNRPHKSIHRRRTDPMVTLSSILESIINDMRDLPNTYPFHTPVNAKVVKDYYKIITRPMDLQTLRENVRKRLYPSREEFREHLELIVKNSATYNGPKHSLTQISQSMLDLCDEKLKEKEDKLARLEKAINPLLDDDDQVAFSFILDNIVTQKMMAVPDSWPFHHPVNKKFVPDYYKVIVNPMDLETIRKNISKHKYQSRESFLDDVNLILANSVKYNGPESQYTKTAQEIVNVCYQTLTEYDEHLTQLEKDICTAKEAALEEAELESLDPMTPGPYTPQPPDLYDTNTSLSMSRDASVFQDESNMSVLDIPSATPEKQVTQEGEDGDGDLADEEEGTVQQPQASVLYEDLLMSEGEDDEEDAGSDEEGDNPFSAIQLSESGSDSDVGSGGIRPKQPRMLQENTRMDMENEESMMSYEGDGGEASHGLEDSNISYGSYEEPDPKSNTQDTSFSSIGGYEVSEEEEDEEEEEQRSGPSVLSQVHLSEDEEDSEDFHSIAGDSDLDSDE
UniProt Q9UMX1: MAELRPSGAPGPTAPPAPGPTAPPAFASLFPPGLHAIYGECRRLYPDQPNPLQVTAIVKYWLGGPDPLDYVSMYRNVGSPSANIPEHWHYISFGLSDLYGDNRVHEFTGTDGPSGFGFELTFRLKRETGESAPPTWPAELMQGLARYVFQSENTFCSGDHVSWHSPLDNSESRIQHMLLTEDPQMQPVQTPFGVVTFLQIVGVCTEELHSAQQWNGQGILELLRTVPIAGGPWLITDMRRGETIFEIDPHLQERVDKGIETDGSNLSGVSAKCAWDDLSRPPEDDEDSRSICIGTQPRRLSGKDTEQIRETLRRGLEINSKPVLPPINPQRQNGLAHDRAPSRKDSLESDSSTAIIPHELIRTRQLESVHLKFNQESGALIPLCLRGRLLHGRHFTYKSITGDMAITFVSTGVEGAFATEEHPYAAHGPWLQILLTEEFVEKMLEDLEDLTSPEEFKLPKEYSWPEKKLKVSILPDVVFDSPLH
UniProt Q15543, whole entry, looked up: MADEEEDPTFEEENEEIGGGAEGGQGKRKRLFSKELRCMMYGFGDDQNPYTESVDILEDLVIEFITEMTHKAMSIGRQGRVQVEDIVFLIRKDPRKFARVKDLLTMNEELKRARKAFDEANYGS
UniProt Q9UEE5: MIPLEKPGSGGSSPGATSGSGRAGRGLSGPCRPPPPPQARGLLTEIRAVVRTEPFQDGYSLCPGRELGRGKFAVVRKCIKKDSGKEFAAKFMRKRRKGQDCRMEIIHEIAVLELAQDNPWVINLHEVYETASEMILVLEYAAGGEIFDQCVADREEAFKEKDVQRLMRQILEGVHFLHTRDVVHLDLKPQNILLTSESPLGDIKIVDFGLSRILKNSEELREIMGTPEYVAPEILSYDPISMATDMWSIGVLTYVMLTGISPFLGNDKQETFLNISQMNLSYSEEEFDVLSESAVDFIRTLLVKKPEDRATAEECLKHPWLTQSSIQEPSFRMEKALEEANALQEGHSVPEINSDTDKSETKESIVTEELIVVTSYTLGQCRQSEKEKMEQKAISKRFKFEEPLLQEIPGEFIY

Some of the results follow.

Compound in the first assay: Cc1ccc(NC(=O)c2ccc(CN3CC[C@H](N(C)C)C3)c(C(F)(F)F)c2)cc1Nc1nccc(-c2cncnc2)n1 [bafetinib]
In words: log2 fold change, soluble protein after heating vs DMSO (PISA); higher = thermal stabilisation; K562 lysate, 10 uM; active = over 0.2 and 3.5 SD of the protein, either way, in both replicates (recomputed). Summed up: (§1)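 To prepare the extract, K562 pellets were dounce-homogenised in PBS pH 7.4 with 1 mM MgCl2, giving crude material at 1 mg/mL protein. This was treated with 10 μM compound for 30 min, then heated in aliquots for 3 min over 48°C-58°C before pooling and addition of NP-40 to 0.5% at 4°C. Centrifugation at 21,000xg for 90 min left soluble protein in the supernatant, which TMTpro 16plex LC-MS/MS quantified with equalised channel sums. Results are log-two fold changes in thermal stability compared with solvent controls, from duplicates.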
Regarding SYNGR3 (UniProt O43761), the log2 fold change was inactive: 0.146.

As for STXBP6 (UniProt Q8NFX7), the log2 fold change was inactive: -0.098.

As to SYNM (UniProt O15061), the log2 fold change is inactive: 0.03.

With STK35 (UniProt Q8TDR2), the log2 fold change was inactive: -0.641.

Regarding SZT2 (UniProt Q5T011), the log2 fold change was inactive: -0.214.

Consider STRN3 isoform 2 (UniProt Q13033), for which the log2 fold change is inactive: -0.086.

As to SULT1A3 isoform 3 (UniProt P0DMM9), the log2 fold change is inactive: -0.04.

As to TAF5L (UniProt O75529), the log2 fold change is inactive: -0.07.

For TAF1C (UniProt Q15572), the log2 fold change is inactive: -0.069.

SYK (UniProt P43405): the log2 fold change was inactive: -0.236.

As to STS (UniProt P08842), the log2 fold change was inactive: -0.2.

SYTL2 isoform 8 (UniProt Q9HCH5): the log2 fold change was inactive: 0.188.

As for SYNGR1 isoform 2 (UniProt O43759), the log2 fold change was inactive: 0.04.

For the target TAF5 (UniProt Q15542), the log2 fold change was inactive: -0.222.

For STK10 (UniProt O94804), the log2 fold change was inactive: -0.184.

Compound in another assay: Cc1cccc(CC(=O)N2CCc3c2ccc(-c2cn(C)c4ncnc(N)c24)c3F)n1
The description is as above. An outline of the steps: as §1
On to STIM2 isoform 2 (UniProt Q9P246), for which the log2 fold change was inactive: 0.047.

Take SUSD3 (UniProt Q96L08): the log2 fold change is inactive: 0.139.

SUPT3H (UniProt O75486): the log2 fold change was inactive: -0.037.

For the target STXBP6 (UniProt Q8NFX7), the log2 fold change was inactive: 0.164.

In the case of SYNM (UniProt O15061), the log2 fold change was inactive: 0.086.

For SUSD1 isoform 2 (UniProt Q6UWL2), the log2 fold change is inactive: 0.06.

For SUSD6 (UniProt Q92537), the log2 fold change is inactive: -0.044.

Take STK35 (UniProt Q8TDR2): the log2 fold change is inactive: 0.003.

Turning to TAF1 isoform 4 (UniProt P21675), the log2 fold change is inactive: 0.416.

For SVBP (UniProt Q8N300), the log2 fold change is inactive: -0.085.

Turning to SUFU (UniProt Q9UMX1), the log2 fold change is inactive: 0.023.

With SZT2 (UniProt Q5T011), the log2 fold change was inactive: 0.22.

In the case of TAF11 (UniProt Q15544), the log2 fold change is inactive: 0.

Regarding STRN3 isoform 2 (UniProt Q13033), the log2 fold change is inactive: -0.08.

With SULT1A3 isoform 3 (UniProt P0DMM9), the log2 fold change was inactive: -0.085.

TAF5L (UniProt O75529): the log2 fold change was inactive: 0.053.

For TAF13 (UniProt Q15543), the log2 fold change was inactive: 0.126.

On to TAF1C (UniProt Q15572), for which the log2 fold change was inactive: -0.011.

Turning to SYK (UniProt P43405), the log2 fold change was inactive: 0.261.

Consider STS (UniProt P08842), for which the log2 fold change is inactive: 0.041.

In the case of TAF3 (UniProt Q5VWG9), the log2 fold change is inactive: 0.088.

For SYNGR1 isoform 2 (UniProt O43759), the log2 fold change is inactive: -0.077.

With STK17A (UniProt Q9UEE5), the log2 fold change is inactive: -0.197.

As to TAF5 (UniProt Q15542), the log2 fold change is inactive: -0.123.

For the target STRN3 (UniProt H0YJT2), the log2 fold change is inactive: 0.323.
